Experimental data reported in ChEMBL document CHEMBL5030546, “Synthesis of thiocolchicine amine derivatives and evaluation of their antiproliferative activity” (Bioorg Med Chem Lett, 2021).

Assays:
A549 = assay: cells; assay type: functional, cell-based; conditions: Homo sapiens, A549, 72 h
LoVo = assay: cells; assay type: functional, cell-based; conditions: Homo sapiens, 72 h
MCF7 = assay: cells; assay type: functional, cell-based; conditions: Homo sapiens, MCF7, 72 h
BALB/3T3 = assay: Cytotoxicity against mouse BALB/3T3 cells assessed as reduction in cell viability incubated for 72 hrs by SRB assay; assay type: ADME, cell-based; conditions: BALB/3T3, 72 h
cells = assay type: functional, cell-based; conditions: Homo sapiens, LoVo/DX, 72 h

Structure (SMILES): COc1cc2c(c(OC)c1OC)-c1ccc(SC)c(=O)cc1[C@@H](N)CC2
- IC50 (A549): 11 nM
- IC50 (LoVo): 10.3 nM
- IC50 (MCF7): 9.5 nM
- IC50 (BALB/3T3): 15.4 nM
- IC50 (cells): 77.8 nM
